Data taken from PubChem BioAssay AID1053133, deposited by Broad Institute (2014).

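Plate-reader measure of the Venus reporter marking one vaccinia stage in infected cells (the cell line is not named here); read time unknown.
The test concentration is not given here.
Percent change in Venus reporter signal; lower (more negative) values mean stronger inhibition of that viral stage.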

Values are in %.
The controls that fix the scale are not given here.
Common to all entries: measured here: Venus reporter, other viral stage.
This is a side read-out of the assay, for part of the compounds, not drawn at random.

C[C@H]1CN([C@@H](C)CO)C(=O)c2cc(NC(=O)Nc3ccc(C(F)(F)F)cc3)ccc2O[C@H]1CN(C)Cc1ccc2c(c1)OCO2 read activity change (Venus) -37.81%.
C[C@@H]1CN([C@H](C)CO)C(=O)c2cc(NS(=O)(=O)c3ccc(F)cc3)ccc2O[C@@H](C)CCCCO[C@H]1CN(C)C(=O)Nc1ccccc1 read activity change (Venus) -38.62%.
CNC[C@H]1Oc2cc(C#Cc3cccc(F)c3)ccc2S(=O)(=O)N([C@H](C)CO)C[C@@H]1C read activity change (Venus) -40.54%.
CC(=O)N(C)C[C@@H]1Oc2cc(C#Cc3cccc(F)c3)ccc2S(=O)(=O)N([C@@H](C)CO)C[C@@H]1C read activity change (Venus) -58.98%.
CC(C)NC(=O)Nc1ccc2c(c1)C(=O)N([C@@H](C)CO)C[C@H](C)[C@H](CN(C)Cc1ccc(Cl)c(Cl)c1)OCCCC[C@@H](C)O2 read activity change (Venus) -41.65%.
C[C@@H]1CN([C@@H](C)CO)C(=O)c2cc(/C=C/c3ccccc3)cnc2O[C@@H]1CN(C)Cc1ccccc1F read activity change (Venus) -31.84%.
COc1ccc(C#Cc2ccc([C@H]3[C@H]4CN(C(=O)Nc5ccccc5F)CC(=O)N4[C@H]3CO)cc2)cc1 read activity change (Venus) -43.93%.
Cc1ccccc1-c1ccc2c(c1)O[C@@H](CN(C)C(=O)Nc1ccc(F)cc1)[C@@H](C)CN([C@@H](C)CO)S2(=O)=O read activity change (Venus) -53.88%.
C[C@H](CO)N1C[C@H](C)[C@H](CN(C)S(=O)(=O)c2ccc(F)cc2)Oc2cc(C#Cc3ccc(F)cc3)ccc2S1(=O)=O read activity change (Venus) -38.4%.
O=C(NC1CCCC1)N1CC(=O)N2[C@H](C1)[C@@H](c1ccc(/C=C/c3ccccc3)cc1)[C@@H]2CO read activity change (Venus) -38.5%.
C[C@H](CO)N1C[C@H](C)[C@H](CN(C)S(=O)(=O)Cc2ccccc2)OCc2ccccc2-c2c(n(C)c3ccccc23)C1=O read activity change (Venus) -42.63%.
COc1cccc(-c2ccc(C3[C@@H]4CN(C(=O)c5ccc(F)cc5)C[C@H]3N4)cc2)c1 (some centres undefined) read activity change (Venus) -91.13%.
COc1ccc(-c2ccc3c(c2)[C@H]2[C@H](CCN2S(=O)(=O)c2ccccc2C)[C@@H](CO)N3)cc1 read activity change (Venus) -42.4%.
COc1ccc(S(=O)(=O)N(C)C[C@@H]2Oc3c(NC(=O)Nc4ccc(C(F)(F)F)cc4)cccc3C(=O)N([C@H](C)CO)C[C@H]2C)cc1 read activity change (Venus) -32.84%.
CC(C)=CCN(C(=O)C#Cc1ccccc1)[C@H](CO)c1ccccc1 read activity change (Venus) -45.02%.
C[C@@H]1CN([C@H](C)CO)C(=O)c2cc(C#Cc3ccc(F)cc3)cnc2O[C@@H]1CN(C)C(=O)c1ccccc1F read activity change (Venus) -34.44%.
C[C@H](CO)N1C[C@H](C)[C@H](CN(C)C(=O)NC2CCCCC2)Oc2ncc(C#Cc3cccc(F)c3)cc2C1=O read activity change (Venus) -50.09%.
C[C@H]1CCCCO[C@@H](CN(C)S(=O)(=O)c2ccc(F)cc2)[C@@H](C)CN([C@@H](C)CO)C(=O)c2cc(NC(=O)NC3CCCCC3)ccc2O1 read activity change (Venus) -31.57%.
CCCC#Cc1ccc([C@@H]2[C@@H](CO)N3CCCCN(C(=O)NC4CCCC4)C[C@H]23)cc1 read activity change (Venus) -35.39%.
C[C@@H]1CN([C@H](C)CO)C(=O)Cc2cc(NC(=O)Cc3ccccc3)ccc2O[C@@H]1CN(C)S(=O)(=O)c1ccc(Cl)cc1 read activity change (Venus) -49.38%.
CN1C(=O)c2cc(NC(=O)c3cccc(F)c3)ccc2OC[C@@H]2O[C@@H](CC(=O)Nc3ccccc3)CC[C@@H]21 read activity change (Venus) -37.22%.
C[C@H](CO)N1C[C@H](C)[C@@H](CN(C)Cc2cccc(F)c2)Oc2cc(-c3ccc(C#N)cc3)ccc2S1(=O)=O read activity change (Venus) -32.76%.
CC(=O)N(C)C[C@@H]1Oc2cc(C#Cc3ccccc3F)ccc2S(=O)(=O)N([C@H](C)CO)C[C@H]1C read activity change (Venus) -21.69%.
COc1ccc(S(=O)(=O)Nc2ccc3c(c2)C(=O)N([C@H](C)CO)C[C@@H](C)[C@@H](CN(C)C(=O)NC2CCCCC2)OCCCC[C@@H](C)O3)cc1 read activity change (Venus) -46.69%.

The last 2 entries again:

Compound	activity change (Venus) (%)
CC(=O)N(C)C[C@@H]1Oc2cc(C#Cc3ccccc3F)ccc2S(=O)(=O)N([C@H](C)CO)C[C@H]1C	-21.69
COc1ccc(S(=O)(=O)Nc2ccc3c(c2)C(=O)N([C@H](C)CO)C[C@@H](C)[C@@H](CN(C)C(=O)NC2CCCCC2)OCCCC[C@@H](C)O3)cc1	-46.69